According to patent US20030229023A1:
These are yes or no findings as the source states them, for the method shown. Some results given as binding are weak or reduced against the parent protein; the word gives no strength.

Sequences of proteins named here, by UniProt entry; tags and fusion partners are left off. Residues count along the entry.
UniProt O15123, residues 19-496: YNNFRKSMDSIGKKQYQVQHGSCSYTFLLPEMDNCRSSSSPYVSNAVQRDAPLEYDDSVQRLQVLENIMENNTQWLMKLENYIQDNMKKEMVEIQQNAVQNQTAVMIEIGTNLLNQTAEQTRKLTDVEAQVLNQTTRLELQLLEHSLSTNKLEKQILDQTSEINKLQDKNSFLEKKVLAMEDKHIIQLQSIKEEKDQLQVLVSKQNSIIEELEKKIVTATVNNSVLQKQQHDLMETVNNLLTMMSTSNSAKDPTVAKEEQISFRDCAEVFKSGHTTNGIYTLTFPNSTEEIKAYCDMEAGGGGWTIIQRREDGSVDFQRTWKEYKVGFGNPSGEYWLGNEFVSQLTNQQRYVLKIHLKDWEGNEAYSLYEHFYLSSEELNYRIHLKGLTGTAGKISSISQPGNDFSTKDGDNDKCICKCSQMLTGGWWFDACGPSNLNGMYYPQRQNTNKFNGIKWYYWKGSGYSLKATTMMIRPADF

Target: Recombinant Human Angiopoietin-2, R&D Systems (human) (UniProt O15123)
Assay: phage display selection and phage ELISA

Row | Binder | binding
1 | KRPCEEIFGGCTYQ [TN8-Con1] | binds
2 | QEECEWDPWTCEHM [TN8-Con4] | binds
3 | FDYCEGVEDPFTFGCDNH [TN12-9] | binds

Continued, values first:

Row | binding | Binder
4 | binds | KRPCEEMWGGCNYD [TN8-8]
5 | binds | KFNPLDELEETLYEQFTFQQ [L1]
6 | binds | HQICKWDPWTCKHW [TN8-14]
